{"source": "PubChem BioAssay AID1259254 (NCATS, 2017)", "aim": "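Gene knock-downs that lead to re-replication, shown by excess G2 DNA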 (primary screen)", "cell system": "human HCT116 colorectal cancer cells", "knock-down reagent": "single siRNA against human genes", "time to read-out": "3 days", "measured": "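Imaged Hoechst DNA stain sorts each cell into a cycle phase by DNA amount; per plate, G2 fraction set to 0% for non-targeting and 100% for GMNN siRNA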", "reading the numbers": "G2 robust z-score: higher = more G2 cells, more excess DNA replication", "call rule": "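Active siRNAs have a G2 robust z of 5 or more median absolute deviations over the median, which in these data means about 38% or higher of GMNN control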", "note": "The whole screen tested about 59,000 reagents; shown is a part drawn at random. About 1,550 of them (2.6%) count as active. 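G2 share is only a proxy for re-replication; each gene was hit by three separate siRNAs, and active genes were retested.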 Entries without a mark were called inactive. Reagents against one gene are numbered here. Not all columns of the deposit are shown. The record does not give: the amount of reagent."}
{"gene knocked down":"IFT38","reagent no.":1,"G2 robust z-score":0.548}
{"gene knocked down":"IFT38","reagent no.":2,"G2 robust z-score":"5.51 (active)"}
{"gene knocked down":"IFT38","reagent no.":3,"G2 robust z-score":0.896}
{"gene knocked down":"MICB","reagent no.":1,"G2 robust z-score":0.0703}
{"gene knocked down":"MICB","reagent no.":2,"G2 robust z-score":-0.236}
{"gene knocked down":"MICB","reagent no.":3,"G2 robust z-score":0.267}
{"gene knocked down":"PHACTR1","reagent no.":1,"G2 robust z-score":0.456}
{"gene knocked down":"PHACTR1","reagent no.":2,"G2 robust z-score":0.849}
{"gene knocked down":"PHACTR1","reagent no.":3,"G2 robust z-score":-0.772}
{"gene knocked down":"PRDM8","reagent no.":1,"G2 robust z-score":1.33}
{"gene knocked down":"PRDM8","reagent no.":2,"G2 robust z-score":4.03}
{"gene knocked down":"PRDM8","reagent no.":3,"G2 robust z-score":-0.603}

The list goes on; the last 3 above are carried over.
{"gene knocked down":"PRDM8","reagent no.":1,"G2 robust z-score":1.33}
{"gene knocked down":"PRDM8","reagent no.":2,"G2 robust z-score":4.03}
{"gene knocked down":"PRDM8","reagent no.":3,"G2 robust z-score":-0.603}
{"gene knocked down":"KCNF1","reagent no.":1,"G2 robust z-score":0.383}
{"gene knocked down":"KCNF1","reagent no.":2,"G2 robust z-score":-1.26}
{"gene knocked down":"KCNF1","reagent no.":3,"G2 robust z-score":-0.744}
{"gene knocked down":"ADAD2","reagent no.":1,"G2 robust z-score":-0.0118}
{"gene knocked down":"ADAD2","reagent no.":2,"G2 robust z-score":-0.709}
{"gene knocked down":"ADAD2","reagent no.":3,"G2 robust z-score":1.12}
{"gene knocked down":"MFSD6","reagent no.":1,"G2 robust z-score":-0.896}
{"gene knocked down":"MFSD6","reagent no.":2,"G2 robust z-score":-0.888}
{"gene knocked down":"MFSD6","reagent no.":3,"G2 robust z-score":0.0472}
{"gene knocked down":"HPS3","reagent no.":1,"G2 robust z-score":2.65}
{"gene knocked down":"HPS3","reagent no.":2,"G2 robust z-score":3.13}
{"gene knocked down":"HPS3","reagent no.":3,"G2 robust z-score":-0.293}
